Reference: US20100261877A1 (priority 2009, published 2010)

Assay: peptide synthesis
Settings: area normalization

## linaclotide
Purification step
  final HPLC purity: 97.0%
Whole synthesis
  final HPLC purity: 97.4%
